This is one part of the list.
Legend:
Assay in all cases: log2 fold change, soluble protein after heating vs DMSO (PISA); higher = thermal stabilisation; K562 cells, 10 uM, 30 min; active = over 0.2 and 3.5 SD of the protein, either way, in both replicates (recomputed)
[1] = compound: CN1CCN(CCOc2cc(OC3CCOCC3)c3c(Nc4c(Cl)ccc5c4OCO5)ncnc3c2)CC1 [saracatinib]
Procedure, shortened: (§1)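 Soluble protein was defined as the supernatant after 21,000xg for 90 min. It came from K562 cells at 2×10^6 cells/mL given 10 μM compound for 30 min, heated in aliquots for 3 min across 48°C-58°C, pooled, and extracted in PBS with 0.5% NP-40 at 4°C, and was quantified by TMTpro 16plex LC-MS/MS with equalised channel sums. Thermal stability against control samples, from duplicates, is reported as log2 fold change.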

Protein sequences, listed by entry. Tags and fused reporters are not part of them. Lines headed by an entry give the natural chain unless they say otherwise; changes in a name come on top.
UniProt Q14257: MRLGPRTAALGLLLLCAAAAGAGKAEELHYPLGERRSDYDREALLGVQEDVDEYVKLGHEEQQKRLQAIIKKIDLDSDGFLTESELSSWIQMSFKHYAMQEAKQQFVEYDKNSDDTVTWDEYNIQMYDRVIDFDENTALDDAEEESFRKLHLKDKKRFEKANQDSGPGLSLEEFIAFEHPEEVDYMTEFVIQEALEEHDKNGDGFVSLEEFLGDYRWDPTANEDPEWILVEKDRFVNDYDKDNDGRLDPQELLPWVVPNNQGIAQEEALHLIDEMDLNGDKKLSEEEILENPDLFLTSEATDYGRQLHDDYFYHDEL
UniProt Q8NC42: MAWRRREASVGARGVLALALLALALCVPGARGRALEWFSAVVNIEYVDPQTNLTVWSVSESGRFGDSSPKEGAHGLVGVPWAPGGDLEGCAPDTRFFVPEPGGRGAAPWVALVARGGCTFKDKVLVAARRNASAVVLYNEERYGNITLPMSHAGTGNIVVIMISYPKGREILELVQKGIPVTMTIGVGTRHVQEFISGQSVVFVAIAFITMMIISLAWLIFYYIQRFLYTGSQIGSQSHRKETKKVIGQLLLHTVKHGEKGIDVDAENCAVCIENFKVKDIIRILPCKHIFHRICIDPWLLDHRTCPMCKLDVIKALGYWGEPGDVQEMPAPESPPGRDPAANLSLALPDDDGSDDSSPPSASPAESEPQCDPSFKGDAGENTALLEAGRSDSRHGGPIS
UniProt O00287: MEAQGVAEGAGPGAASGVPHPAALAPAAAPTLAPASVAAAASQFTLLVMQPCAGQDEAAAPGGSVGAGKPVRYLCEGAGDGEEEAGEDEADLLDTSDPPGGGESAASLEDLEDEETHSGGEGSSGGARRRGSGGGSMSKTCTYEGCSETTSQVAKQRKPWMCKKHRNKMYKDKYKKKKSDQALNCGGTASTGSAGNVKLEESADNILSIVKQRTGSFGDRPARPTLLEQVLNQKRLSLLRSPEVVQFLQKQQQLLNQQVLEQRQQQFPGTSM
UniProt Q96HR9: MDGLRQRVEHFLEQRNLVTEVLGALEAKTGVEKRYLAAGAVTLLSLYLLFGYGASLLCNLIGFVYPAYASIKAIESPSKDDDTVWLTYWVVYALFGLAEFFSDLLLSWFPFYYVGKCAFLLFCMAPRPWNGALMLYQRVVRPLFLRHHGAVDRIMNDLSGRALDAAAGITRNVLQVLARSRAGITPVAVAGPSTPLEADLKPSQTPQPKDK
UniProt Q5XPI4: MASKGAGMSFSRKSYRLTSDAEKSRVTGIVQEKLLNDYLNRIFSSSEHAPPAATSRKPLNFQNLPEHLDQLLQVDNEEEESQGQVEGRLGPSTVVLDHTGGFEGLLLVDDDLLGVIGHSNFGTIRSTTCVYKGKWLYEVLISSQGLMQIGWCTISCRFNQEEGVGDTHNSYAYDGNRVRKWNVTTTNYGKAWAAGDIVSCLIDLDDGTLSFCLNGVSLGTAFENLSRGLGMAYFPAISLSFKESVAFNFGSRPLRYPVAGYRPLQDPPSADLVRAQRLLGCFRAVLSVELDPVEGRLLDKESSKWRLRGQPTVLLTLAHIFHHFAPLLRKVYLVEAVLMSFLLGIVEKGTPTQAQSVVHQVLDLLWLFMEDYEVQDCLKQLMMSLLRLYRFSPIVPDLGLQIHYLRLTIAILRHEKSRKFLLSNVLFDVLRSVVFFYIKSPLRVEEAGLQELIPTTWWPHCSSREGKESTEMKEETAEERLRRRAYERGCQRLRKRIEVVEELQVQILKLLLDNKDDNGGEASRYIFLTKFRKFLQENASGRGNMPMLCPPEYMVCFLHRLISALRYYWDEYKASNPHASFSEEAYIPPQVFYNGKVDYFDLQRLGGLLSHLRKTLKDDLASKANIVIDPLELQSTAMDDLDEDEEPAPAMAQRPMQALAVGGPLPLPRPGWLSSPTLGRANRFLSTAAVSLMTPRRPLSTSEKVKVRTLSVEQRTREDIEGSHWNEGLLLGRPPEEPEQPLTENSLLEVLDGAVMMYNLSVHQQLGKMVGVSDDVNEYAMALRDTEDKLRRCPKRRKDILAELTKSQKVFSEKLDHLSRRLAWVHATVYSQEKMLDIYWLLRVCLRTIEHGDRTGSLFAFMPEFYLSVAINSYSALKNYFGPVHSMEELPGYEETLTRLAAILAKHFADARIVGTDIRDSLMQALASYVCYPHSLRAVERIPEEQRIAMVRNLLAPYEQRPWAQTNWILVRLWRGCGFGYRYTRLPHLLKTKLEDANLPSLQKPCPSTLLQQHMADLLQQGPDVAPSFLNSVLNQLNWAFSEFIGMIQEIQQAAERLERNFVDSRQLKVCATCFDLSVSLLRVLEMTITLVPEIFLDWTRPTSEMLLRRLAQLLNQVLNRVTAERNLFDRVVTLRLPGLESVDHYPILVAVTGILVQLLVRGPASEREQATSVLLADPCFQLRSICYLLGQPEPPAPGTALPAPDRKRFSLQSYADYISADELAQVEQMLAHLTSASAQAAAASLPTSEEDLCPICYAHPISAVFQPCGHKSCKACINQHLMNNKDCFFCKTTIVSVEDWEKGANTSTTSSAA
UniProt Q96NA2: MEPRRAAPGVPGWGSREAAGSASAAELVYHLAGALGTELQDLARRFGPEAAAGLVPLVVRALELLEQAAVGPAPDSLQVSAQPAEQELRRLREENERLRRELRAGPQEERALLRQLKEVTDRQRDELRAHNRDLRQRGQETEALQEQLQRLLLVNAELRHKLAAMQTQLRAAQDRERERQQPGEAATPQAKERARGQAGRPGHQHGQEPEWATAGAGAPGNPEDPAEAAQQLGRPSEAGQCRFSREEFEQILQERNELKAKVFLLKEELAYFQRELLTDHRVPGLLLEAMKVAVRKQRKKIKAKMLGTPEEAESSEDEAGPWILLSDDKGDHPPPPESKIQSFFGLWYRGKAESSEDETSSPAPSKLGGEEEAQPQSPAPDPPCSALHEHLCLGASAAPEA
UniProt Q8NC44: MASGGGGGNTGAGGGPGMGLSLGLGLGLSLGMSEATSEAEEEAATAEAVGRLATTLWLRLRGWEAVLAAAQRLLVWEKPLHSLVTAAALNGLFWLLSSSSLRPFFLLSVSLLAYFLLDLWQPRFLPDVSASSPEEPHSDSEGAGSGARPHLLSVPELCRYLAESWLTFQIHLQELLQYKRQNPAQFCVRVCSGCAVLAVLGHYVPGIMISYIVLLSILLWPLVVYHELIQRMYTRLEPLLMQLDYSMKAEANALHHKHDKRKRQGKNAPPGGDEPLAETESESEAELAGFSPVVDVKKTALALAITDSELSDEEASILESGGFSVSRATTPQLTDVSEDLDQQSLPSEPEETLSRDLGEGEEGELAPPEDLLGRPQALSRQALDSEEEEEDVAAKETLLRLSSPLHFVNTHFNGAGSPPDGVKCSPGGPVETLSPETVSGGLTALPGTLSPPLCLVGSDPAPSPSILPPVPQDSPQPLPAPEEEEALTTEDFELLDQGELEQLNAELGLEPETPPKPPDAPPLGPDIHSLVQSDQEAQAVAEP
UniProt P35241, whole entry, looked up: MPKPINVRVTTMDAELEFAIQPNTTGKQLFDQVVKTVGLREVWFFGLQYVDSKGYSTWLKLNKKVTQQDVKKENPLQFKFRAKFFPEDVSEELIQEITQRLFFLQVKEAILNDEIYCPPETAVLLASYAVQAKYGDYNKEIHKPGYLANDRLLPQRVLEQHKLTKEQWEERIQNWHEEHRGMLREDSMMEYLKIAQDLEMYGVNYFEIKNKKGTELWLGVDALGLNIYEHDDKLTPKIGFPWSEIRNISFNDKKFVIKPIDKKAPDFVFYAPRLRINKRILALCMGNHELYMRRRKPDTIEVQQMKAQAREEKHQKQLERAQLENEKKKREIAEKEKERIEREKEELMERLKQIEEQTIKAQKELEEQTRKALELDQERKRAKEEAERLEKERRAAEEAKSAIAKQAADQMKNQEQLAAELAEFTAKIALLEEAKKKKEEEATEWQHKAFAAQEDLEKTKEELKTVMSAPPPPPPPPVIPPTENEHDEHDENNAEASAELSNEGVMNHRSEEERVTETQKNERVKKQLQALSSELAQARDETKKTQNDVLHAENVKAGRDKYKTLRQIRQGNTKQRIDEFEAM
UniProt Q9Y580: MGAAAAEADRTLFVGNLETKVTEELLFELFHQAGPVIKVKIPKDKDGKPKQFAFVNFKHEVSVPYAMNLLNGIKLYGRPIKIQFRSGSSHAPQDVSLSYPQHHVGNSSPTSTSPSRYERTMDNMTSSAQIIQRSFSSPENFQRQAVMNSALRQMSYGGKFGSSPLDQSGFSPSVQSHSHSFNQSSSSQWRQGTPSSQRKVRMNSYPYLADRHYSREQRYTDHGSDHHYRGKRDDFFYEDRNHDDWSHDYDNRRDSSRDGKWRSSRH
UniProt Q9Y3B8: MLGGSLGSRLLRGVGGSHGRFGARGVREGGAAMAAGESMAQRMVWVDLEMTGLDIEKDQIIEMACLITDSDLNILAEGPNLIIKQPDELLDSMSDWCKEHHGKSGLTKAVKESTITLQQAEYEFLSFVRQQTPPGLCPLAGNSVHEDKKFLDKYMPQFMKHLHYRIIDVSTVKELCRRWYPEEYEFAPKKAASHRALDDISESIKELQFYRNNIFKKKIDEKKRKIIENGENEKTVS
UniProt Q9H871: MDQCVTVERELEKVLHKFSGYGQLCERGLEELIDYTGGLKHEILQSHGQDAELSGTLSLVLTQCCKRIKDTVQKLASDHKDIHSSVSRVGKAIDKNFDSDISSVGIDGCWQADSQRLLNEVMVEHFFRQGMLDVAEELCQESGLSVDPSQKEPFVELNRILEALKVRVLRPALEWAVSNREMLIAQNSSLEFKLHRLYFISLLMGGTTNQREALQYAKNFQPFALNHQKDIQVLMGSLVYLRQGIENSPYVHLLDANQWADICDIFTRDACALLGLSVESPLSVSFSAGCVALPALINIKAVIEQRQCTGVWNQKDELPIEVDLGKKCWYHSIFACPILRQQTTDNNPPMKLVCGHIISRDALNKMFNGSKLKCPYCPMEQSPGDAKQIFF
UniProt Q96D71: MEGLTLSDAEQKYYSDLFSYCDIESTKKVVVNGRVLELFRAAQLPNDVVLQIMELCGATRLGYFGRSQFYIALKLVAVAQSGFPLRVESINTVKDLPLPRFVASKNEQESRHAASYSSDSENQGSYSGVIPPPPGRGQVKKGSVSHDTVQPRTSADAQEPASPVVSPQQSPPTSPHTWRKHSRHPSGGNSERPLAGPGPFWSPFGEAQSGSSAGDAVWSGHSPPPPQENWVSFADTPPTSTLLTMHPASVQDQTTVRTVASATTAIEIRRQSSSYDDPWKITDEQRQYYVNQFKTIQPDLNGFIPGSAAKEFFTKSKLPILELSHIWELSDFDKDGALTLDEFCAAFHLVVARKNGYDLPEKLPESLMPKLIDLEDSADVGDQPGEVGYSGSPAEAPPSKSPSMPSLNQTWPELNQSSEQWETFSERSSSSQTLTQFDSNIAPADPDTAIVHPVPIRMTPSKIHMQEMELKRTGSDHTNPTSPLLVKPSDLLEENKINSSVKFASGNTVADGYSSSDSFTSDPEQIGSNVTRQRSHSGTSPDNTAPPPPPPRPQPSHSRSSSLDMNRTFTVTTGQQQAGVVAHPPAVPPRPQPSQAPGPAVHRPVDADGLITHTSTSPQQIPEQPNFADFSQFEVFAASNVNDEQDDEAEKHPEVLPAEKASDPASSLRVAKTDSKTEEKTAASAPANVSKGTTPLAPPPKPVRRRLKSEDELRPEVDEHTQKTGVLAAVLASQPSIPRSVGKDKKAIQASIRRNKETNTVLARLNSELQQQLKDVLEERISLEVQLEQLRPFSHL
UniProt Q9Y256: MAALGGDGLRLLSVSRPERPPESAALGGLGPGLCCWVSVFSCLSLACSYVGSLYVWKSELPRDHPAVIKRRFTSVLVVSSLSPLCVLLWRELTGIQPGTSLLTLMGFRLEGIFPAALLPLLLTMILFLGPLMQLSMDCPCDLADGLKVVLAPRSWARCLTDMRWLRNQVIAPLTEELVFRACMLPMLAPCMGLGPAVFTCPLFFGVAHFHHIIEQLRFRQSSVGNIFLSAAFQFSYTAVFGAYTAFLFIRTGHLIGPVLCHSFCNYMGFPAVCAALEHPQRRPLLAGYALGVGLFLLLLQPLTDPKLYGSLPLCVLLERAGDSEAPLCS
UniProt O43353, whole entry, looked up: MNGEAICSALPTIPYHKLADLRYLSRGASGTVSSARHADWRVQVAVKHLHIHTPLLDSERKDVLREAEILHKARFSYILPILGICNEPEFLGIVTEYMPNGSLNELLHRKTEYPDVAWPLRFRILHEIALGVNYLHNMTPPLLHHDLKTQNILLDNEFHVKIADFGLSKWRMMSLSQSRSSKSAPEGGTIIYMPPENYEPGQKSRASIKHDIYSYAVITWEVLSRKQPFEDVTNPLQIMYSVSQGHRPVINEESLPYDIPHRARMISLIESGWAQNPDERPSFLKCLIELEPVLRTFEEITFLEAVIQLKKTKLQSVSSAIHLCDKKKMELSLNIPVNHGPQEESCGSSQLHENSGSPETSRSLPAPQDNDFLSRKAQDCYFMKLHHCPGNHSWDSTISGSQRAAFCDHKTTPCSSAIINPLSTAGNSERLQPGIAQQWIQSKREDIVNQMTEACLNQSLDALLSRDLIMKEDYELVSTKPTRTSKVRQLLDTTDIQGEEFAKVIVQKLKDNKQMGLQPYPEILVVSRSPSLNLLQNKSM

[2] = compound: CN1CCN(c2nc(C3=C(c4c[nH]c5ccccc45)C(=O)NC3=O)c3ccccc3n2)CC1 [sotrastaurin]
Procedure, shortened: as §1

[3] = compound: CN1CC[C@H](c2c(O)cc(O)c3c(=O)cc(-c4ccccc4Cl)oc23)[C@H](O)C1 [alvocidib]
Procedure, shortened: as §1

[4] = compound: CN1CCc2c(c3ccccc3n2Cc2ccc(C(=O)NO)cc2)C1 [Tubastatin A]
Procedure, shortened: as §1

[5] = compound: CNC(=O)C1=CC=CC=C1NC2=NC(=NC=C2Cl)NC3=C(C=C(C=C3)N4CCOCC4)OC
Procedure, shortened: as §1

[6] = compound: CNC(=O)c1ccc(Nc2ncc(C(F)(F)F)c(NCc3nccnc3N(C)S(C)(=O)=O)n2)cc1 [defactinib]
Procedure, shortened: as §1

[7] = compound: CNCc1ccc(-c2[nH]c3cc(F)cc4c3c2CCNC4=O)cc1 [rucaparib]
Procedure, shortened: as §1

[8] = compound: CNc1nc(-c2ccc3c(N)n[nH]c3c2)cc(N2C[C@@H](C(=O)NC3CCCCC3)CC[C@H]2C)n1
Procedure, shortened: as §1

[9] = compound: COC(=O)N[C@@H](C)CNc1nccc(-c2cn(C(C)C)nc2-c2cc(Cl)cc(NS(C)(=O)=O)c2F)n1 [encorafenib]
Procedure, shortened: as §1

[10] = compound: COC(=O)[C@H](CCSC)NC(=O)C1=C(C=C(C=C1)NC[C@H](CS)N)C2=CC=CC=C2
Procedure, shortened: as §1

[11] = compound: COC1=CC=C(C=C1)CN2C=CC3=C2C=C(C=C3)C(=O)NO
Procedure, shortened: as §1

[12] = compound: CON(C)C(=O)N1N=C(c2cc(F)ccc2F)S[C@@]1(CCCN)c1ccccc1 [filanesib]
Procedure, shortened: as §1

[13] = compound: CO[C@H]1C[C@@H]2CC[C@@H](C)[C@@](O)(O2)C(=O)C(=O)N2CCCC[C@H]2C(=O)O[C@H]([C@H](C)C[C@@H]2CC[C@H](n3cnnn3)[C@H](OC)C2)CC(=O)[C@H](C)/C=C(\C)[C@@H](O)[C@@H](OC)C(=O)[C@H](C)C[C@H](C)/C=C/C=C/C=C/1C [zotarolimus]
Procedure, shortened: as §1

[14] = compound: COc1cc(C(=O)O)ccc1NC(=O)[C@@H]1N[C@@H](CC(C)(C)C)[C@](C#N)(c2ccc(Cl)cc2F)[C@H]1c1cccc(Cl)c1F [idasanutlin]
Procedure, shortened: as §1

[15] = compound: COc1cc(Nc2ncc3c(n2)-c2ccc(Cl)cc2C(c2c(F)cccc2OC)=NC3)ccc1C(=O)O [alisertib]
Procedure, shortened: as §1

[16] = compound: COc1cc2nc(-c3cc(F)ccc3O)nc(N[C@@H]3CNC[C@H]3C(C)(C)O)c2cc1OC
Procedure, shortened: as §1

[17] = compound: COc1cc2ncnc(Nc3ccc(F)c(Cl)c3)c2cc1OCCCN1CCOCC1 [gefitinib]
Procedure, shortened: as §1

[18] = compound: COc1cccc2cc(-c3nc([C@H]4CC[C@H](C(=O)O)CC4)n4ncnc(N)c34)[nH]c12
Procedure, shortened: as §1

[19] = compound: CS(=O)(=O)CCNCc1ccc(-c2ccc3ncnc(Nc4ccc(OCc5cccc(F)c5)c(Cl)c4)c3c2)o1 [lapatinib]
Procedure, shortened: as §1

[20] = compound: CS(=O)(=O)N1CCN(Cc2cc3nc(-c4cccc5[nH]ncc45)nc(N4CCOCC4)c3s2)CC1 [pictilisib]
Procedure, shortened: as §1

Measured: log2 fold change

RCN2 isoform 2 (UniProt Q14257)
inactive: [1] 0.044 | [2] 0.012 | [3] 0.007 | [4] 0.006 | [5] 0.014 | [6] 0.005 | [7] -0.047 | [8] -0.055 | [9] 0.028 | [10] 0.02 | [11] -0.04 | [12] -0.002 | [13] 0.018 | [14] 0.031 | [15] -0.043 | [16] 0.005 | [17] 0.017 | [18] 0.045 | [19] 0.025 | [20] 0

RNF149 (UniProt Q8NC42)
inactive: [1] 0 | [2] 0.06 | [3] -0.057 | [4] 0.135 | [5] -0.073 | [6] 0.04 | [7] -0.019 | [8] 0.04 | [9] 0.133 | [10] 0.003 | [11] 0.026 | [12] -0.039 | [13] -0.052 | [14] 0.058 | [15] 0.013 | [16] -0.042 | [17] -0.043 | [18] 0.023 | [19] -0.02 | [20] 0

RFXAP (UniProt O00287)
inactive: [1] -0.011 | [2] 0.006 | [3] -0.108 | [4] -0.003 | [5] -0.074 | [6] -0.024 | [7] -0.02 | [8] -0.036 | [9] 0.101 | [10] 0.104 | [11] 0.002 | [12] 0.101 | [13] -0.015 | [14] -0.047 | [15] -0.132 | [16] 0.065 | [17] 0.031 | [18] -0.035 | [19] -0.023

RBM42 (UniProt Q9BTD8)
inactive: [1] -0.111 | [2] 0.016 | [3] 0.137 | [4] 0.046 | [5] 0.068 | [6] 0.014 | [7] 0.185 | [8] -0.041 | [9] -0.002 | [10] -0.045 | [11] -0.055 | [12] 0.146 | [13] -0.03 | [14] 0.05 | [15] -0.038 | [16] -0.062 | [17] -0.032 | [18] -0.082 | [19] 0.066 | [20] -0.114

REEP6 (UniProt Q96HR9)
inactive: [1] -0.02 | [2] 0.046 | [3] -0.006 | [4] -0.052 | [5] -0.006 | [6] 0.036 | [7] -0.022 | [8] -0.061 | [9] 0.01 | [10] -0.001 | [11] 0.075 | [12] 0.049 | [13] -0.005 | [14] 0.022 | [15] 0.021 | [16] -0.044 | [17] 0.032 | [18] 0.072 | [19] -0.018 | [20] 0.04

RNF123 isoform 2 (UniProt Q5XPI4)
inactive: [1] -0.001 | [2] -0.017 | [3] -0.13 | [4] 0.002 | [5] 0.001 | [6] -0.139 | [7] 0.006 | [8] -0.087 | [9] 0.018 | [10] 0 | [11] 0.205 | [12] 0.032 | [13] 0.02 | [14] -0.045 | [15] 0.036 | [16] 0.04 | [17] -0.022 | [18] -0.014 | [19] 0.027 | [20] -0.039

RILP (UniProt Q96NA2)
inactive: [1] 0.024 | [2] 0.045 | [3] -0.035 | [4] 0.005 | [5] -0.016 | [6] -0.054 | [7] -0.035 | [8] -0.011 | [9] 0.01 | [10] -0.043 | [11] 0.021 | [12] -0.037 | [13] 0.006 | [14] -0.035 | [15] -0.122 | [16] -0.071 | [17] -0.013 | [18] 0.056 | [19] 0.084 | [20] 0.102

RETREG2 (UniProt Q8NC44)
inactive: [1] 0.059 | [2] -0.018 | [3] -0.145 | [4] 0.06 | [5] 0.095 | [6] 0.035 | [7] -0.028 | [8] 0.038 | [9] -0.055 | [10] 0.021 | [11] -0.09 | [12] -0.147 | [13] 0.105 | [14] -0.045 | [15] -0.288 | [16] -0.076 | [17] -0.038 | [18] 0.076 | [19] 0.093

RDX (UniProt P35241)
inactive: [1] 0.03 | [2] 0.021 | [3] 0.007 | [4] -0.031 | [5] -0.011 | [6] 0.01 | [7] -0.007 | [8] -0.035 | [9] -0.03 | [10] 0.003 | [11] 0.119 | [12] 0.004 | [13] -0.019 | [14] -0.032 | [15] -0.078 | [16] -0.028 | [17] 0.004 | [18] 0.026 | [19] -0.011 | [20] 0.038

RBM7 (UniProt Q9Y580)
inactive: [1] -0.302 | [2] 0.003 | [3] -0.072 | [4] 0.17 | [5] 0.128 | [6] 0.119 | [7] 0.187 | [8] 0.061 | [9] 0.055 | [10] 0.065 | [12] 0.175 | [13] 0.082 | [15] -0.051 | [16] 0.097 | [17] 0.023 | [18] 0.219 | [19] 0.039 | [20] 0.027

REXO2 (UniProt Q9Y3B8)
inactive: [1] 0.026 | [2] 0.058 | [3] -0.001 | [4] -0.031 | [5] -0.01 | [6] -0.003 | [7] 0.001 | [8] -0.058 | [9] -0.019 | [10] 0.023 | [11] -0.012 | [12] -0.026 | [13] 0.012 | [14] -0.007 | [15] -0.006 | [16] 0.02 | [17] -0.002 | [18] 0.079 | [19] -0.035 | [20] 0.08

RMND5A (UniProt Q9H871)
inactive: [1] -0.016 | [2] 0.005 | [3] -0.034 | [4] 0.024 | [5] 0.05 | [6] -0.075 | [7] -0.03 | [8] 0.056 | [9] 0.04 | [10] -0.012 | [11] -0.065 | [12] 0.035 | [13] 0.053 | [14] -0.027 | [15] -0.038 | [16] 0.012 | [17] 0.021 | [18] -0.008 | [19] 0.01 | [20] 0.07

REPS1 (UniProt Q96D71)
inactive: [1] -0.016 | [2] -0.329 | [3] 0.027 | [4] -0.108 | [5] -0.004 | [6] 0.052 | [7] 0.173 | [8] 0.098 | [9] 0.001 | [10] 0.044 | [11] 0.023 | [12] 0.263 | [13] 0.093 | [14] 0.2 | [16] 0.117 | [17] 0.107 | [19] -0.334 | [20] 0.102

RCCD1 (UniProt A6NED2)
inactive: [1] 0.108 | [2] 0.073 | [3] -0.089 | [4] -0.058 | [5] 0.022 | [6] -0.055 | [7] 0.026 | [8] -0.047 | [9] -0.011 | [10] 0.012 | [11] 0.057 | [12] -0.032 | [13] 0.007 | [14] 0.028 | [15] -0.109 | [16] -0.027 | [17] 0.142 | [18] -0.006 | [19] 0.038 | [20] 0.005

RFC1 (UniProt P35251)
inactive: [1] -0.038 | [2] 0.07 | [3] 0.147 | [4] 0.011 | [6] 0.082 | [8] 0.096 | [10] 0.043 | [12] -0.114 | [13] 0.001 | [14] 0.043 | [20] -0.102

RCE1 (UniProt Q9Y256)
inactive: [1] 0.19 | [2] -0.066 | [3] -0.254 | [4] -0.322 | [5] 0.059 | [6] -0.117 | [7] -0.021 | [8] 0.027 | [9] 0.024 | [10] 0.054 | [12] -0.212 | [13] -0.046 | [14] -0.009 | [15] -0.143 | [16] -0.221 | [17] 0.081 | [18] 0.004 | [19] -0.045 | [20] -0.053

RIPK2 (UniProt O43353)
inactive: [1] -0.048 | [2] 0.066 | [3] -0.014 | [4] -0.006 | [5] 0.027 | [6] -0.014 | [7] 0.026 | [8] -0.038 | [9] -0.01 | [10] 0.015 | [11] 0.181 | [12] -0.017 | [13] -0.01 | [14] -0.005 | [15] -0.006 | [16] -0.039 | [18] -0.03 | [19] 0.059 | [20] -0.083

2 records picked at random from those above, as already listed:
RCE1 (UniProt Q9Y256)
inactive: [1] 0.19 | [2] -0.066 | [3] -0.254 | [4] -0.322 | [5] 0.059 | [6] -0.117 | [7] -0.021 | [8] 0.027 | [9] 0.024 | [10] 0.054 | [12] -0.212 | [13] -0.046 | [14] -0.009 | [15] -0.143 | [16] -0.221 | [17] 0.081 | [18] 0.004 | [19] -0.045 | [20] -0.053

REPS1 (UniProt Q96D71)
inactive: [1] -0.016 | [2] -0.329 | [3] 0.027 | [4] -0.108 | [5] -0.004 | [6] 0.052 | [7] 0.173 | [8] 0.098 | [9] 0.001 | [10] 0.044 | [11] 0.023 | [12] 0.263 | [13] 0.093 | [14] 0.2 | [16] 0.117 | [17] 0.107 | [19] -0.334 | [20] 0.102

From the supplement of paper PMC10849652
